Article PMC11574084
These are yes or no findings as the source states them, for the method shown. In cells and extracts the contact can be indirect. Here binding means that the protein was enriched with, or labelled near, the bait; the list need not be complete.

Chains of the proteins cited; added tags and fusions are not shown.
UniProt O00629: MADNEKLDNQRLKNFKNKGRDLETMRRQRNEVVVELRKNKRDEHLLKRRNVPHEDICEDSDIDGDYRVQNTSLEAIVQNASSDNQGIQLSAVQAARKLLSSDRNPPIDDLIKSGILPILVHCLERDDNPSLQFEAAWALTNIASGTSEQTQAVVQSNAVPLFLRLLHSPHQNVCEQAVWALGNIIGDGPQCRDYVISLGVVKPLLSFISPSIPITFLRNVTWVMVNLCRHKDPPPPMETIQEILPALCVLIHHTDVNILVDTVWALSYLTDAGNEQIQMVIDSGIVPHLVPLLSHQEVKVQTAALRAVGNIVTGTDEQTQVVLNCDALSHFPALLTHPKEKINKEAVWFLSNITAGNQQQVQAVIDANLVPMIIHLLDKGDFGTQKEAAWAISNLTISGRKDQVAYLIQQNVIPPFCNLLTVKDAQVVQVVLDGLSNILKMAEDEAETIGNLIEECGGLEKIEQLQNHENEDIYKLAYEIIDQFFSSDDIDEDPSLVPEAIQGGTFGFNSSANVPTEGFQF

Target: T1, IRF1 (human (endogenous in HUVEC)) (UniProt P10914)
T1 sequence: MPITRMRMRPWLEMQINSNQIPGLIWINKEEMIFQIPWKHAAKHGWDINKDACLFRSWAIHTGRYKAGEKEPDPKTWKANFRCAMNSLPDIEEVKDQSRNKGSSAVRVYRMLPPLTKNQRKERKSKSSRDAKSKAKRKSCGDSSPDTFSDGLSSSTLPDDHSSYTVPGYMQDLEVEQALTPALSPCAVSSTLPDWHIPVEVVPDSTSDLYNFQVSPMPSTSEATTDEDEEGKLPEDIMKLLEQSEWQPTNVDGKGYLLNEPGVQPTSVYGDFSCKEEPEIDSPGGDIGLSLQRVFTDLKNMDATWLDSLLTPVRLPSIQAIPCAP
Assay: affinity purification with mass spectrometry; LC-MS analysis of Co-IP samples made with anti-IRF1 antibody; endothelial cells

Q: Which binding does the source give for KPNA4 (from UniProt O00629 1-521) here?
A: binds
